Taken from: PubChem BioAssay AID1159578 (Peter MacCallum Cancer Centre, 2015)

- Test: 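siRNA pools altering how lymphatic endothelial cells close a scratch wound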 (primary screen)
- Cell system: human lymphatic endothelial cells
- Reagents: siRNA pool against human genes, 40 nM
- Time to read-out: 48 h after transfection
- Read-out: 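High-content imaging of dye-stained cells in a scratch assay measures filled wound area and nuclei per well; duplicate means given as ratio to mock and robust z-score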
- Reading the numbers: migration robust z-score: higher = faster migration into the scratch; nuclei per well: higher = more cells in the well
- Active means: 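Pools averaging fewer than 3300 nuclei are never called; remaining pools count as changed when migration robust z lies outside -2 to 2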
- Calls: active = migration changed; inactive = no migration change, or too few cells
In all, the deposit lists about 18,000 reagents; this is a part drawn at random. About 1,030 of all reagents (5.7%) were called active. 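Inactive calls also include pools with fewer than 3300 nuclei, whose migration was not assessed.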 Raw values vary from plate to plate and are shown uncorrected. Further read-outs or replicates are left out here. Reagent sequences are not shown.

Target gene | migration robust z-score | nuclei per well, duplicate mean | Call
SMPDL3A | 0.36 | 5706 | inactive
OR52D1 | 0.26 | 6772 | inactive
RAB1B | -0.2 | 4178 | inactive
DNAJC14 | 1.4 | 5760 | inactive
PPP1R3F | -1.65 | 6558 | inactive
ITIH3 | -0.72 | 5458 | inactive
JAML | 0 | 6038 | inactive
HRG | 2.25 | 5194 | active
DNPH1 | 1.56 | 5233 | inactive
SEC61B | -0.22 | 5598 | inactive
COXFA4 | 0.55 | 5379 | inactive
PLAAT3 | 0.26 | 5482 | inactive
BPIFB3 | -0.36 | 5363 | inactive
CEP68 | 0.96 | 5029 | inactive
SPATA31D1 | 1.34 | 5822 | inactive
APEH | 0.21 | 5322 | inactive
DSEL | -0.73 | 4965 | inactive
LXN | 1.34 | 5739 | inactive
STX3 | 0.1 | 5426 | inactive
LAPTM4A | -1.06 | 4776 | inactive
EVC | 0.92 | 6201 | inactive
ARCN1 | -2.29 | 5890 | active
TBC1D9 | -0.26 | 5616 | inactive
SLC30A4 | -0.68 | 5122 | inactive
GPR15LG | 0.34 | 5124 | inactive
CYLC1 | 0.3 | 5896 | inactive
PPDPF | -1.19 | 5340 | inactive
CIITA | 0.1 | 6893 | inactive
PPP1CC | 0.88 | 5714 | inactive
SCARB2 | 0.29 | 5666 | inactive
TRPC4 | -0.94 | 5148 | inactive
GPR141 | -0.24 | 5652 | inactive
MMP21 | -1.35 | 5558 | inactive
SHANK2 | -1.27 | 4700 | inactive
TMEM81 | -0.27 | 6816 | inactive
NEUROD1 | -0.31 | 4724 | inactive
HADHA | -0.62 | 6835 | inactive
SLC25A33 | 2.51 | 6567 | active
DRC2 | 2.27 | 6906 | active
ZER1 | 0.98 | 5750 | inactive
TCEA1 | -0.46 | 6140 | inactive
PGF | 0.68 | 6052 | inactive
PLEKHG4B | 0.54 | 5834 | inactive
GAGE4 | -0.78 | 5496 | inactive
SPRED3 | 1.31 | 5894 | inactive
CYP4X1 | -1.22 | 3972 | inactive
CDY2B | -2.1 | 5010 | active
SSUH2 | 0.31 | 5046 | inactive
CD79B | 0.7 | 5094 | inactive
CYB5R3 | 0.7 | 5854 | inactive
C1QTNF8 | -0.75 | 6002 | inactive
BRSK2 | 0.24 | 5958 | inactive
SLC7A3 | 1.06 | 6088 | inactive
ABITRAM | -1.62 | 6014 | inactive
PRR22 | -0.99 | 4625 | inactive
GBP4 | 0.22 | 4140 | inactive
TMA7 | -0.08 | 5632 | inactive
